# Reference: article PMC10937794
# Chains of the proteins cited; added tags and fusions are not shown.
# UniProt Q61473: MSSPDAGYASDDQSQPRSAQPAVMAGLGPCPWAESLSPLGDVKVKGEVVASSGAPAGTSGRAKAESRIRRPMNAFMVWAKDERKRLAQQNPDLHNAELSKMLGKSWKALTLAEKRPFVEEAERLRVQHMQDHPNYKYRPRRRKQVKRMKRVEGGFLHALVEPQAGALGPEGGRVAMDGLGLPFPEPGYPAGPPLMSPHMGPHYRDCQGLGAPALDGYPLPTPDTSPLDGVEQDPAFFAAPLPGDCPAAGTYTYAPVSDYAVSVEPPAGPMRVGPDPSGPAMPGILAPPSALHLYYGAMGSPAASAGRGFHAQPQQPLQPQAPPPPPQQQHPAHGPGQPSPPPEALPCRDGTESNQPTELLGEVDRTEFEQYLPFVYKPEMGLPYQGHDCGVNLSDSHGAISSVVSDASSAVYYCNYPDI
# UniProt Q9R0P9: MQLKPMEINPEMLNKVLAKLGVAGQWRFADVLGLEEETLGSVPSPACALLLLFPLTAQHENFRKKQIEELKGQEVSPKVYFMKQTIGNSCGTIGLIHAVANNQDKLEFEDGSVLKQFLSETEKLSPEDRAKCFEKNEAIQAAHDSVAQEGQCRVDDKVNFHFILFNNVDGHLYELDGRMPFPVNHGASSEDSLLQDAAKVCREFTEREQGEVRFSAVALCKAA
# No constants are given. Whether binding was seen depends on the method and setting. Binding seen in cells or lysates may run through a third protein. Some results given as binding are weak or reduced against the parent protein; the word gives no strength.
# Key:
# [1] = molecular target: Sox17, endogenous in endothelial cells (mouse (endogenous in bEnd.3)) (UniProt Q61473); assay: co-IP; endogenous proteins in endothelial cell lysates; immunoprecipitation with anti-Sox17, anti-UCHL1 or control IgG and protein A/G plus-agarose at 4 C, immunoblot
# [2] = molecular target: Ubiquitin C-terminal hydrolase L1 (UCHL1), endogenous in endothelial cells (mouse (endogenous in bEnd.3)) (UniProt Q9R0P9); assay: as above
binding [1],binding [2],Substance
binds,–,"Ubiquitin C-terminal hydrolase L1 (UCHL1), endogenous in endothelial cells (from UniProt Q9R0P9 1-223) (enzyme)"
–,binds,"Sox17, endogenous in endothelial cells (from UniProt Q61473 1-419)"
